Experimental data from PubChem BioAssay AID504834 (National Center for Advancing Translational Sciences (NCATS), 2011).
About 22,000 (6.9%) of roughly 320,000 compounds were called active. Inconclusive means that the source gave no clear call. Such entries were picked first, then a sample of the others. Calls follow the shape of the dose curve; as a rule, active = well fitted inhibition curve with a large enough effect; inconclusive = small, poorly fitted or top-dose-only effect, or another doubt; inactive = no such curve, though single readings can be large or run the other way. A potency beside an inconclusive call is a rough fit, not a confirmed value.

Assay: Primary qHTS for delayed death inhibitors of the malarial parasite plastid, 96 hour incubation
Details: P. falciparum luciferase reporter growth; series mostly up to 28.7 µM; activity change, negative = inhibition: at the top concentration
Procedure, shortened: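 P. falciparum expressing integrated firefly luciferase, in erythrocytes at 2% hematocrit, 0.05% parasitemia, incubated with compounds 96 h at 37 C, 5% CO2. Growth inhibition read as loss of luminescence; two-generation exposure targets delayed-death apicoplast inhibitors.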
% is scaled to controls: 0 for no effect and ±100 for the full control effect; potency is read from the fitted curve at half-maximal effect.

Question: With `COC(=O)N/N=C/c1ccc(-c2cccc(Cl)c2)o1` as the compound, how does the “activity change, negative = inhibition” value read?
Answer: The value was inactive: -23.3%.

Question: With `Cc1noc(C)c1S(=O)(=O)N1CCC(C(=O)N2CCN(Cc3ccc4c(c3)OCO4)CC2)CC1` as the compound, how does the Potency read?
Answer: The Potency was active: 5.86 µM.

Question: For `CN(C)Cc1c(C(=O)N/N=C/c2cccnc2)nnn1-c1nonc1N`, which Potency is on record?
Answer: Its Potency is inconclusive: 10.4 µM [inhibitor, single point].

Question: With `Cc1ccc(NC(=O)C(C)N2C(=O)c3ccccc3C2=O)nc1` (centres undefined) as the compound, how does the Potency read?
Answer: The Potency was inconclusive: 2.62 µM [inhibitor, partial curve, poor fit].

Question: With `Cc1c(N(C(=O)c2cc(=O)[nH]c3ccccc23)C(C)C)c(=O)n(-c2ccccc2)n1C` as the compound, how does the Potency read?
Answer: The Potency was inconclusive: 18.5 µM [inhibitor, single point].

Question: Which “activity change, negative = inhibition” value does the source give for `O=C(O)c1ccc(Nc2nc(-c3ccccc3)nc3ccccc23)cc1` here?
Answer: Its value is inactive: 23.9%.

Question: Which Potency does the source give for `O=C(CSc1nnc(CNc2ccc(F)cc2)o1)OC1CCCCC1` here?
Answer: The Potency was inconclusive: 0.928 µM [inhibitor, full curve, poor fit].

Question: With `COc1ccc(Br)cc1CN1CCCC(C(=O)N2CCCCCC2)C1` (centres undefined) as the compound, how does the Potency read?
Answer: The Potency was inconclusive: 8.28 µM [inhibitor, partial curve, poor fit].

Question: Which “activity change, negative = inhibition” value does the source give for `COc1ccc(OC)c(N(CC(=O)NCC2CCCO2)S(=O)(=O)c2ccccc2)c1` (centres undefined) here?
Answer: Its value is inactive: -9.38%.

Question: With `CSCC[C@@H](C(=O)O)N1Cc2ccccc2C1=O` as the compound, how does the Potency read?
Answer: The Potency was inconclusive: 10.4 µM [inhibitor, partial curve, poor fit].

Question: For `CCN(CC)C(=O)CSc1nnc([C@H](Cc2c[nH]c3ccccc23)NC(=O)OC(C)(C)C)o1`, which Potency is on record?
Answer: Its Potency is inconclusive: 14.7 µM [inhibitor, partial curve, poor fit].

Question: For `O=C(Cn1cnc2cc([N+](=O)[O-])ccc2c1=O)N(Cc1ccccc1)C1CCS(=O)(=O)C1` (centres undefined), which “activity change, negative = inhibition” value is on record?
Answer: Its value is inactive: 7.03%.

Question: For `O=S(=O)(Nc1nc2ccccc2nc1-[n+]1cccc(N=C([O-])c2ccc(Cl)cc2)c1)c1ccccc1`, which Potency is on record?
Answer: The Potency was active: 8.28 µM.

Question: Which Potency does the source give for `Cc1ccc(OC(=O)c2ccc(Cl)c([N+](=O)[O-])c2)cn1` here?
Answer: Its Potency is inconclusive: 13.1 µM [inhibitor, single point].

Question: For `Cc1ccc(NC(=S)NCC(C)CSc2ccc(Cl)cc2)cc1` (centres undefined), which Potency is on record?
Answer: The Potency was inconclusive: 1.17 µM [inhibitor, partial curve, poor fit].

Question: Which “activity change, negative = inhibition” value does the source give for `CC(=O)Nc1ccc(NC(=O)c2ccc(COc3ccc4c(C)cc(=O)oc4c3)cc2)cc1` here?
Answer: The value was inactive: 20.7%.

Question: Which Potency does the source give for `CCOc1ccc(-c2cc(C(=O)NN)[nH]n2)cc1` here?
Answer: The Potency was inconclusive: 9.28 µM [inhibitor, single point].

Question: Which Potency does the source give for `N#Cc1ccc(COc2ccc(CCO)cc2-n2nc3ccccc3n2)cc1` here?
Answer: The Potency was inconclusive: 10.4 µM [inhibitor, single point].

Question: Which Potency does the source give for `COC(=O)C1=C(CSc2nc3c(cc2C#N)CN(C)CC3)OC(N)=C(C#N)C1c1ccccc1F` (centres undefined) here?
Answer: The Potency was active: 11.7 µM.

Question: For `Cc1ccc(C(C(=O)NC2CCCC2)N(Cc2ccccc2)C(=O)c2csnn2)o1` (centres undefined), which Potency is on record?
Answer: The Potency was inconclusive: 2.08 µM [inhibitor, full curve].

Question: For `Cc1ccccc1-c1nnn(C/C(N)=N/O)n1`, which Potency is on record?
Answer: The Potency was inconclusive: 6.57 µM [inhibitor, partial curve].

Question: With `c1ccc(N/N=C(\Cc2ncc[nH]2)c2ccccc2)cc1` as the compound, how does the Potency read?
Answer: Its Potency is active: 9.28 µM.

Question: For `Cn1c(=O)n(C)c2cc(C(=O)c3ccccc3)ccc21`, which Potency is on record?
Answer: The Potency was inconclusive: 9.28 µM [inhibitor, partial curve, poor fit].

Question: With `CC1(C)CC(=O)C2=C(C1)NC(Nc1nc3ccccc3o1)=NC2c1ccccn1` (centres undefined) as the compound, how does the Potency read?
Answer: Its Potency is inconclusive: 14.7 µM [inhibitor, partial curve, poor fit].

Question: Which Potency does the source give for `CCOC(=O)C1(CCOc2ccccc2)CCN(Cc2ccc(C)s2)CC1` here?
Answer: The Potency was active: 10.4 µM.

Question: Which Potency does the source give for `O=C(c1cccc(F)c1)N1CCC(N2CCOCC2)CC1` here?
Answer: Its Potency is inconclusive: 18.5 µM [inhibitor, single point].

Question: For `COc1cccc(NC(=O)[C@H](CC(C)C)NC(=O)N2CCn3c2nc2ccccc23)c1`, which Potency is on record?
Answer: The Potency was active: 5.86 µM.

Question: With `O=C1CC(N2CCOCC2)C(=O)N1c1ccccc1Cl` (centres undefined) as the compound, how does the “activity change, negative = inhibition” value read?
Answer: The value was inactive: 5.55%.

Question: Which Potency does the source give for `CCOC(=O)C(NC(=O)c1ccccc1Cl)(Nc1sc2c(c1C(N)=O)CCC2)C(F)(F)F` (centres undefined) here?
Answer: Its Potency is active: 4.15 µM.

Question: With `O=c1/c(=C/c2ccco2)sc2n1CN(c1cccc(Br)c1)CN=2` as the compound, how does the Potency read?
Answer: The Potency was inconclusive: 1.17 µM [inhibitor, full curve].

Question: Which Potency does the source give for `O=[N+]([O-])c1cccc(S(=O)(=O)N2CCc3ccccc3C2)c1` here?
Answer: Its Potency is inconclusive: 16.5 µM [inhibitor, single point].

Question: Which Potency does the source give for `COc1ccccc1OCc1nc(-c2ccc([N+](=O)[O-])cc2)no1` here?
Answer: Its Potency is inconclusive: 18.5 µM [inhibitor, single point].

Question: Which Potency does the source give for `COc1cc2c(cc1OC)C(C)N(C(=O)c1cc3c(s1)-c1c(C)cccc1OC3)CC2` (centres undefined) here?
Answer: Its Potency is inconclusive: 18.5 µM [inhibitor, single point].

Question: With `CCCN1CCN(CCCNC(=O)c2cc3c(=O)oc4ccc(C)cc4c3s2)CC1` as the compound, how does the Potency read?
Answer: Its Potency is inconclusive: 18.5 µM [inhibitor, single point].

Question: For `CC(Oc1ccc2c3c(c(=O)oc2c1)CCCC3)C(=O)NCC(O)c1ccccc1` (centres undefined), which “activity change, negative = inhibition” value is on record?
Answer: The value was inactive: -6.59%.

Question: With `COc1cc(/C=N\NC(=O)c2c(C)nc3cc(C)ccn23)ccc1O` as the compound, how does the Potency read?
Answer: Its Potency is inconclusive: 0.828 µM [inhibitor, full curve].

Question: With `CCN1CCN(CCCN(Cc2ccco2)C(=S)Nc2ccccc2Cl)CC1` as the compound, how does the Potency read?
Answer: Its Potency is active: 1.85 µM.

Question: For `O=C(N/N=C/c1sc2ccccc2c1O)c1ccccc1`, which Potency is on record?
Answer: Its Potency is inconclusive: 18.5 µM [inhibitor, single point].

Question: For `CC(C)(C)NC(=O)NC(=O)COC(=O)CNS(=O)(=O)/C=C/c1ccccc1`, which “activity change, negative = inhibition” value is on record?
Answer: The value was inactive: 15.2%.

Question: Which Potency does the source give for `COC(=O)c1nc(N)sc1-c1ccc(Cl)cc1` here?
Answer: Its Potency is inconclusive: 0.657 µM [inhibitor, full curve, poor fit].

Question: With `O=C(NCc1cccnc1)Nc1ccc2c(c1)OCO2` as the compound, how does the Potency read?
Answer: The Potency was inconclusive: 4.15 µM [inhibitor, partial curve].

Question: With `Cc1cccn2c(CN(C)CC3Cc4ccccc4O3)c(C(=O)N3CCCCC3)nc12` (centres undefined) as the compound, how does the Potency read?
Answer: Its Potency is inconclusive: 18.5 µM [inhibitor, single point].

Question: With `COc1ccc(N(C(=O)COc2cccc(C)c2)S(=O)(=O)c2ccc(C)cc2)cc1` as the compound, how does the Potency read?
Answer: The Potency was inconclusive: 4.65 µM [inhibitor, partial curve, poor fit].
